{"source": "PubChem BioAssay AID540256", "about": "(National Center for Advancing Translational Sciences (NCATS), 2011)", "note": "The campaign covered roughly 300,000 compounds. About 3,700 (1.2%) were called active. The inconclusive results got no clear call from the source; some entries with a clear call stand among them for comparison. Calls come from the whole dose curve; tested in HEK293 cells. Where the call is inconclusive, the potency comes from a doubtful curve fit. % is set by controls: 0 for no effect and ±100 for the full control effect; potency is the fitted concentration of half-maximal effect.", "data": [{"experiment": "qHTS for Inhibitors of binding or entry into cells for Lassa Virus; note: nearly all actives have a fitted effect of over 50% in size", "conditions": "Lassa virus pseudotype entry inhibition, cell reporter; activity change, negative = inhibition: at 37.9 µM (top of the series) unless noted", "values": [{"smiles": "Brc1ccc(/C=N/Nc2ccc3ccccc3n2)cc1", "Potency": "inconclusive: 0.82 µM [activator, partial curve]"}, {"smiles": "CCC(C)(C)n1nnnc1C(c1cc(OC)c(OC)c(OC)c1)N1CCN(c2ccccc2)CC1", "note": "(centres undefined)", "Potency": "inconclusive: 0.794 µM [inhibitor, full curve]"}, {"smiles": "CCN1CCN(P2(=O)C=C(c3ccccc3)OC(c3ccccc3)=C2)CC1", "activity change, negative = inhibition": "inactive: -27.6%"}, {"smiles": "COc1ccc(CCNC(=O)c2ccc(CNS(=O)(=O)c3cc(C)ccc3C)cc2)cc1OC", "Potency": "inconclusive: 14.1 µM [inhibitor, single point]"}, {"smiles": "CC(NC(=O)c1sc2cc([N+](=O)[O-])ccc2c1Cl)C(C)(C)C", "note": "(centres undefined)", "activity change, negative = inhibition": "inactive: 6.72%"}, {"smiles": "O=C(O)c1ccccc1Nc1ccc([N+](=O)[O-])c2nonc12", "Potency": "inconclusive: 1.78 µM [inhibitor, partial curve, poor fit]"}, {"smiles": "CCN(CC)C(=O)c1sc(NC(=O)Cc2ccccc2)c(C#N)c1C", "Potency": "inconclusive: 25.1 µM [inhibitor, partial curve, poor fit]"}, {"smiles": "O=C(c1cnn2c(C(F)(F)F)cc(-c3ccc(F)cc3)nc12)N1CCc2ccccc2C1", "Potency": "inconclusive: 35.5 µM [inhibitor, single point]"}, {"smiles": "Cc1ccc2c(c1)C(c1ccc(F)cc1)N(C(=O)c1ccc(OC(C)C)cc1)CC(=O)N2", "note": "(centres undefined)", "Potency": "inconclusive: 35.5 µM [inhibitor, single point]"}, {"smiles": "Cn1cc(Br)c(C(=O)NNC(=O)c2cccc(Br)c2)n1", "activity change, negative = inhibition": "inactive: 3.93%"}, {"smiles": "Cc1ccccc1C(=O)Nc1cc(-c2ccc(Cl)cc2)nn1-c1ccccc1", "Potency": "inconclusive: 7.94 µM [activator, partial curve, poor fit]"}, {"smiles": "COc1ccccc1C(=O)OCC(=O)NC(=O)NC1CCCCC1", "activity change, negative = inhibition": "inactive: 8.01%"}, {"smiles": "C=CCSc1nc2ccccc2n1C(=O)/C=C/c1ccc(OC)c(OC)c1", "Potency": "active: 8.2 µM"}, {"smiles": "Cc1ccc(-n2nnc(C(=O)Nc3cc(F)ccc3F)c2C)cc1F", "Potency": "inconclusive: 2.82 µM [inhibitor, full curve]"}, {"smiles": "Fc1cc(Br)ccc1NC(=S)Nc1cccnc1", "activity change, negative = inhibition": "inactive: -0.674% [at 46.1 µM]"}, {"smiles": "CC(C)n1c(N2CCN(S(=O)(=O)c3cccc([N+](=O)[O-])c3)CC2)nc2ccccc21", "Potency": "inconclusive: 17.8 µM [inhibitor, single point]"}, {"smiles": "Cc1cccc(CN2CCc3c(OCC(=O)NCc4ccco4)cccc3C2=O)c1", "Potency": "inconclusive: 20.6 µM [inhibitor, partial curve]"}, {"smiles": "O=C(COC(=O)/C=C/c1cccs1)Nc1ccc(Cl)cc1F", "Potency": "inconclusive: 0.631 µM [inhibitor, single point]"}, {"smiles": "Cc1ccc(C)c(N2CCN(C(=O)c3cc4c(=O)n(Cc5cccs5)ccc4nc3C)CC2)c1", "Potency": "inconclusive: 35.5 µM [inhibitor, single point]"}, {"smiles": "COc1ccc(-n2nnnc2/C=C\\Nc2ccccc2C(=O)c2ccccc2)cc1", "Potency": "inconclusive: 1.83 µM [inhibitor, full curve]"}, {"smiles": "COc1cccc(-c2cnc(NCc3ccccc3Cl)n2C)c1", "activity change, negative = inhibition": "inactive: -28.4% [at 46.1 µM]"}, {"smiles": "COc1cc(/C=C/C(=O)OCC(=O)Nc2ccc3c(c2)OCCO3)ccc1O", "activity change, negative = inhibition": "inactive: -25.5%"}, {"smiles": "Cn1ccnc1SCC(=O)Nc1ccc2c(c1)COC2=O", "activity change, negative = inhibition": "inactive: 7.36%"}, {"smiles": "CC(C)(C)c1ccc(S(=O)(=O)Nc2ccc(O)c(Sc3nc4ccccc4s3)c2)cc1", "Potency": "inconclusive: 3.55 µM [inhibitor, partial curve, poor fit]"}, {"smiles": "CN(C)S(=O)(=O)c1cccc(NC(=O)c2sccc2-c2ccccc2)c1", "activity change, negative = inhibition": "inactive: -15.1%"}, {"smiles": "Cc1coc2cc3oc(=O)c(CC(=O)NCc4ccccc4)c(C)c3cc12", "activity change, negative = inhibition": "inactive: -18.7% [at 46.1 µM]"}, {"smiles": "NC1=NC(=O)C(CC(=O)NCc2ccccc2)S1", "note": "(centres undefined)", "Potency": "inconclusive: 0.224 µM [inhibitor, full curve, poor fit]"}, {"smiles": "Cc1ccc(S(=O)(=O)N2CCC(=O)N(CCOCc3ccc(C(F)(F)F)cc3)CC2)cc1", "Potency": "inconclusive: 23.1 µM [inhibitor, partial curve, poor fit]"}, {"smiles": "O=c1c2c3c(sc2n(Cc2cc(=O)n4ccccc4n2)c(=O)n1-c1ccc(Cl)cc1)CCC3", "activity change, negative = inhibition": "inactive: -1.47% [at 46.1 µM]"}, {"smiles": "CCC(C)[C@@H](NC(=O)OC(C)(C)C)c1nnc(S(=O)(=O)Cc2cccc(C)c2)o1", "note": "(some centres undefined)", "Potency": "inconclusive: 35.5 µM [inhibitor, single point]"}, {"smiles": "CCC(=O)NC(=S)Nc1cccc(Cl)c1N1CCCCC1", "activity change, negative = inhibition": "inactive: 23.5%"}, {"smiles": "O=C(O)c1nn(Cc2csc(-c3ccccc3)n2)c(=O)c2ccccc12", "activity change, negative = inhibition": "inactive: -17.6%"}, {"smiles": "COc1ccccc1N1CCN(CCCCOc2c(OC)cccc2OC)CC1", "Potency": "inconclusive: 22.4 µM [inhibitor, partial curve, poor fit]"}, {"smiles": "COC(=O)CCN(C(=O)c1c(C)oc2ncnc(N3CCOCC3)c12)c1ccccc1", "Potency": "inconclusive: 35.5 µM [activator, single point]"}, {"smiles": "CN1CCN(C(=O)/C=C\\c2ccc(Cl)cc2)CC1", "Potency": "inconclusive: 22.4 µM [activator, single point]"}, {"smiles": "CCCc1nn2c(C)c(-c3ccccc3)nc2s1", "activity change, negative = inhibition": "inconclusive: 13.6% [activator] [at 46.1 µM]"}, {"smiles": "CN(C)c1ccc(C(C(=O)NCc2ccccc2)N(Cc2ccco2)C(=O)c2snc(C(N)=O)c2N)cc1", "note": "(centres undefined)", "Potency": "inconclusive: 7.08 µM [inhibitor, full curve, poor fit]"}, {"smiles": "Nc1[nH]nc2nc(NCc3ccccc3)c3c(c12)CCN(Cc1ccccc1)C3", "Potency": "active: 12.6 µM"}, {"smiles": "Cc1nc(-c2coc3cc(OCC(=O)O)ccc3c2=O)cs1", "Potency": "inconclusive: 23.1 µM [inhibitor, single point]"}, {"smiles": "CCn1c(=O)c(C(=O)Nc2ccc(C)cc2C)c(O)c2ccccc21", "activity change, negative = inhibition": "inactive: 9.15%"}, {"smiles": "CCCCOc1ccc(CNC(=O)c2ccc(NC(=O)N3CCSc4ncccc43)cc2)cc1", "activity change, negative = inhibition": "inactive: -28.8% [at 46.1 µM]"}, {"smiles": "Cc1ccc(-c2nc3ccsc3c(=O)o2)cc1", "Potency": "inconclusive: 25.1 µM [inhibitor, single point]"}, {"smiles": "Cc1nn(Cc2c(Cl)cccc2Cl)c(C)c1NC(=O)CCCn1nc(C)c([N+](=O)[O-])c1C", "Potency": "inconclusive: 11.2 µM [inhibitor, partial curve, poor fit]"}, {"smiles": "C(=N\\Nc1nc2ccccc2s1)/c1ccco1", "Potency": "inconclusive: 29.1 µM [inhibitor, single point]"}]}]}
